Reference: PMC3499479
No constants are given. Whether binding was seen depends on the method and setting. For some assays here: Binding seen in cells or lysates may run through a third protein. Some entries that bind do so weakly or less than the wild type. For some assays here: Tags and fused reporters may be left off the sequences shown.

Protein sequences, listed by entry. Tags and fused reporters are not part of them.
UniProt Q39255: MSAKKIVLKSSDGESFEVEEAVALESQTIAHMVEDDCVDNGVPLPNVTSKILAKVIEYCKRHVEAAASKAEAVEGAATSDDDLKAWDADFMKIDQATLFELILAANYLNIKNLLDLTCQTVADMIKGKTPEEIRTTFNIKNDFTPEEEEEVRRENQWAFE

What was measured:
[1] = biological target: T1, F-box (FBX) protein At5g21040 (Arabidopsis thaliana) (UniProt Q94AD8); test: two-hybrid; FBX fused to Gal4-DB, ASK fused to Gal4-AD; yeast mating; selection on SD without Leu, Trp, His, Ade (high strength) or without Leu, Trp, His (low strength); every combination examined twice
T1 sequence: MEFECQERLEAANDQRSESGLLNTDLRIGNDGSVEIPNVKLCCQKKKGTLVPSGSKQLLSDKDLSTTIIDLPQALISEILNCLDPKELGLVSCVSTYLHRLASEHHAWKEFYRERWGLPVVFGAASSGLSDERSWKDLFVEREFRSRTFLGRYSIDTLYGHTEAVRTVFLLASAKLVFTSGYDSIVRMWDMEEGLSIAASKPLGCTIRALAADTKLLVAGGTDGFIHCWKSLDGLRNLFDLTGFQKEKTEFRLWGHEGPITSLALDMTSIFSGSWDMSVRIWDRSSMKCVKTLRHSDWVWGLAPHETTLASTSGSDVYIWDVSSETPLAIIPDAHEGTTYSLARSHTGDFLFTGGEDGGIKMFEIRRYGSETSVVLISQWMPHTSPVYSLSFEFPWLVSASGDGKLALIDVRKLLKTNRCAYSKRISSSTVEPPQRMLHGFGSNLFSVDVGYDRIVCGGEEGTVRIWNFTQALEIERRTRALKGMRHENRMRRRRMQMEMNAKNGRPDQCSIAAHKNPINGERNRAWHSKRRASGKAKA

[2] = biological target: T2, F-box (FBX) protein At1g30790, BiFC fusion (Arabidopsis thaliana) (UniProt Q9SY20); test: split reporter; FBX in pSCYCE (SCFP3A 174-328), ASK in pSCYNE (SCFP3A 1-173), CaMV 35S promoter; Agrobacterium GV3101 infiltrated into Nicotiana tabacum leaves, 28 C for 3 days; fluorescence microscopy
T2 sequence: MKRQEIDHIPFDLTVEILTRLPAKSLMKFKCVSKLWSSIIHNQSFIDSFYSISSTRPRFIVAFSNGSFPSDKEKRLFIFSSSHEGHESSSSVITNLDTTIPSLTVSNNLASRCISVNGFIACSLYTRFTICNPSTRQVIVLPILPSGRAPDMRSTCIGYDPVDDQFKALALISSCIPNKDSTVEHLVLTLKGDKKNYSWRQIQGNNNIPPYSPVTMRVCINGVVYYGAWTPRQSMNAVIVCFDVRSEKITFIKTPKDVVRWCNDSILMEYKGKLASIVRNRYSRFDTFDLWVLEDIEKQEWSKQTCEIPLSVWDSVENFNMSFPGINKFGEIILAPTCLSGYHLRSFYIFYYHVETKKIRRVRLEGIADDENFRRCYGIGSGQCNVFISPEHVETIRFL

[3] = biological target: T3, F-box (FBX) protein At3g03360, BiFC fusion (Arabidopsis thaliana) (UniProt Q84W80); test: as above
T3 sequence: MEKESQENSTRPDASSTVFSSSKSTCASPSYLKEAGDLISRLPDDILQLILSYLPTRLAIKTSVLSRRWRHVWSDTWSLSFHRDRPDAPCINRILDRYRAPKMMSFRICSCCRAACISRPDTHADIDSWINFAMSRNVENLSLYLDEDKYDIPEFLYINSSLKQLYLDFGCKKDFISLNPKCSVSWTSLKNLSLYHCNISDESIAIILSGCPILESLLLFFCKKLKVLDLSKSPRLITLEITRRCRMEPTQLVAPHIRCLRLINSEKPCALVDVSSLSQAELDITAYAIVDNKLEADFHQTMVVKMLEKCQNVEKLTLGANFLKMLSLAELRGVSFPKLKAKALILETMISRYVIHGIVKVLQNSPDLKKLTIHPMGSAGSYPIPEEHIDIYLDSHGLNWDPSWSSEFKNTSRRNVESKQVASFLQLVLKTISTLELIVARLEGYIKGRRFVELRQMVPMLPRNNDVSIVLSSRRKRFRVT

[4] = biological target: T4, F-box (FBX) protein At5g21040, BiFC fusion (Arabidopsis thaliana) (UniProt Q94AD8); test: as above
T4 sequence: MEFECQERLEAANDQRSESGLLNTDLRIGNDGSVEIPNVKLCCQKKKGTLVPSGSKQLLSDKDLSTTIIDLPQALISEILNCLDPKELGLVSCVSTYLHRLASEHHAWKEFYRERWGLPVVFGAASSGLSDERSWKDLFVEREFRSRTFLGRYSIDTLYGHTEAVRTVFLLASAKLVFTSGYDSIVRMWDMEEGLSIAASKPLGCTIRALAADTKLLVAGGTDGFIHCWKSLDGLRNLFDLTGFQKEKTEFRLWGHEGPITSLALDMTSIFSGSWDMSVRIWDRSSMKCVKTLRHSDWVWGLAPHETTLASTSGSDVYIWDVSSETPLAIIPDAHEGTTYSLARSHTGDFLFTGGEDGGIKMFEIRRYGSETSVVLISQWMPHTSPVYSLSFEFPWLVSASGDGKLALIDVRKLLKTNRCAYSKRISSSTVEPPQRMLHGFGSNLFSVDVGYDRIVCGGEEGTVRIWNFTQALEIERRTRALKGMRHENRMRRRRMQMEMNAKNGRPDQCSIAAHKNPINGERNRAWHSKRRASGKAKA

[5] = biological target: T5, F-box (FBX) protein At3g04660, BiFC fusion (Arabidopsis thaliana) (UniProt Q9SR08); test: as above
T5 sequence: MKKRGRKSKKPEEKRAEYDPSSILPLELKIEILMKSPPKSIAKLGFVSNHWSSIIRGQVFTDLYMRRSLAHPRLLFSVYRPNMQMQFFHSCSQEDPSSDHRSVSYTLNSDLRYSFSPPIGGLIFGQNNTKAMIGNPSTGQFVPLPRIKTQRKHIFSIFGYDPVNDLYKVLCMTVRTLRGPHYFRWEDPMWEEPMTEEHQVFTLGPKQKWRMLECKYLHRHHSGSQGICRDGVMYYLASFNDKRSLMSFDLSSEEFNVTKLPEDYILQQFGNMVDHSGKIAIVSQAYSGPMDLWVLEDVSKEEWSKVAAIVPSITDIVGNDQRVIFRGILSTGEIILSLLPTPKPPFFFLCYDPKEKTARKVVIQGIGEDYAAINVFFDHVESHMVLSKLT

Molecule | binding [1] | binding [2] | binding [3] | binding [4] | binding [5]
Arabidopsis SKP1-LIKE 1 (ASK1) (from UniProt Q39255 1-160) | binds |  |  |  | 
Arabidopsis SKP1-LIKE 1 (ASK1), BiFC fusion (from UniProt Q39255 1-160) |  | binds | binds | binds | 
Arabidopsis SKP1-LIKE 12 (ASK12) (protein, UniProt O65674 1-152) MSSKMIVLMSSDGQSFEVEEAVAIQSQTIAHMVEDDCVADGIPLANVESKILVKVIEYCKKYHVDEANPISEEDLNKWDEKFMDLEQSTIFELILAANYLNIKSLFDLTCQTVADMIKGKTPEEIRSTFNIENDFTPEEEEAVRKENQWAFE | binds |  |  |  | 
Arabidopsis SKP1-LIKE 10 (ASK10), BiFC fusion (protein, UniProt Q9LSX8 1-152) MSTKKIILKSSDGHSFEVEEEAACQCQTIAHMSEDDCTDNGIPLPEVTGKILEMVIEYCNKHHVDAANPCSDEDLKKWDKEFMEKYQSTIFDLIMAANYLNIKSLLDLACQTVADMIKDNTVEHTRKFFNIENDYTHEEEEAVRRENQWGFE |  | binds |  |  | 
Arabidopsis SKP1-LIKE 11 (ASK11), BiFC fusion (protein, UniProt O49484 1-152) MSSKMIVLMSSDGQSFEVEEAVAIQSQTIAHMVEDDCVADGIPLANVESKILVKVIEYCKKHHVDEANPISEEDLNNWDEKFMDLEQSTIFELILAANYLNIKSLLDLTCQTVADMIKGKTPEEIRSTFNIENDFTPEEEEAVRKENQWAFE |  | binds |  | binds | 

More lines, now with the values ahead:

binding [1] | binding [2] | binding [3] | binding [4] | binding [5] | Molecule
 | binds | binds | binds | binds | Arabidopsis SKP1-LIKE 14 (ASK14), BiFC fusion (protein, UniProt O81057 1-149) MSSNKIVLSSSDGESFEVEEAVARKLKIVEHMIEDDCVVTEVPLQNVTGKILSIVVEYCKKHVVDEESDEFKTWDEEFMKKFDQPTVFQLLLAANYLNIKGLLDLSAQTVADRIKDKTPEEIREIFNIENDFTPEEEAAVRKENAWAFE
 | binds |  | binds |  | Arabidopsis SKP1-LIKE 16 (ASK16), BiFC fusion (protein, UniProt O81055 1-170) MSSNKIVLTSSDDESFEVEEAVARKLKVIAHMIDDDCADKAIPLENVTGNILALVIEYCKKHVLDDVDDSDDSTEATSENVNEEAKNELRTWDAEFMKEFDMETVMKLILAVNYLNVQDLLGLTCQTVADHMKDMSPEEVRELFNIENDYTPEEEDAIRKENAWAFEDLK
